The record followed here is publication PMC10849766.

This test deals with T1, Vascular endothelial (VE)-cadherin (human (endogenous in HBMECs)), P33151.
T1 chain: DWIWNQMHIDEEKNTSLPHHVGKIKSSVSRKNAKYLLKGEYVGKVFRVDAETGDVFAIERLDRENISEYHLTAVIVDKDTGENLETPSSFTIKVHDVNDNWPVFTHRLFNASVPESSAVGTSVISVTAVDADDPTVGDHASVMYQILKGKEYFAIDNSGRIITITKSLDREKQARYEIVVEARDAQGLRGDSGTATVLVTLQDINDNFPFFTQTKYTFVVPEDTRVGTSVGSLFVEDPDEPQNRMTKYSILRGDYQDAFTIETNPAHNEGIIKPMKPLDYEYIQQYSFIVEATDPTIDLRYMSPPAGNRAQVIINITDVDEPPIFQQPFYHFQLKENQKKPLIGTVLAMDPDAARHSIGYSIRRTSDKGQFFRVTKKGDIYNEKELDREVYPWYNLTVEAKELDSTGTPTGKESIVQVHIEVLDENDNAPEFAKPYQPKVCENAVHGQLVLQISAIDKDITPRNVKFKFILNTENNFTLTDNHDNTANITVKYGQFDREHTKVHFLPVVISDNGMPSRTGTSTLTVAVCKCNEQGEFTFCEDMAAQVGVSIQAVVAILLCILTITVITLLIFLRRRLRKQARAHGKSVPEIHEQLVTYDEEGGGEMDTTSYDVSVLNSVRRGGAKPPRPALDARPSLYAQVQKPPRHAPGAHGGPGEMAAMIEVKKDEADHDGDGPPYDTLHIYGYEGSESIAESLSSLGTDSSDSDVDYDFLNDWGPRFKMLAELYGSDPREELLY
Kind of test: co-IP; IP with VE-cadherin antibody from HBMEC lysates, Western blot for α-catenin and β-catenin; cells under hypoxia plus IL-1β for 24 hours with rhTIMP2, rhAlaTIMP2 or PBS; also cells transfected with WT, Y419D or Y419A Src. Conditions: remark: other sources report otherwise.

No constants are given. Whether binding was seen depends on the method and setting. In cells and extracts the contact can be indirect. Some binding calls cover weakened binding; strength is not graded here.

B1: β-catenin, P35222 1-781 (protein)
chain: MATQADLMELDMAMEPDRKAAVSHWQQQSYLDSGIHSGATTTAPSLSGKGNPEEEDVDTSQVLYEWEQGFSQSFTQEQVADIDGQYAMTRAQRVRAAMFPETLDEGMQIPSTQFDAAHPTNVQRLAEPSQMLKHAVVNLINYQDDAELATRAIPELTKLLNDEDQVVVNKAAVMVHQLSKKEASRHAIMRSPQMVSAIVRTMQNTNDVETARCTAGTLHNLSHHREGLLAIFKSGGIPALVKMLGSPVDSVLFYAITTLHNLLLHQEGAKMAVRLAGGLQKMVALLNKTNVKFLAITTDCLQILAYGNQESKLIILASGGPQALVNIMRTYTYEKLLWTTSRVLKVLSVCSSNKPAIVEAGGMQALGLHLTDPSQRLVQNCLWTLRNLSDAATKQEGMEGLLGTLVQLLGSDDINVVTCAAGILSNLTCNNYKNKMMVCQVGGIEALVRTVLRAGDREDITEPAICALRHLTSRHQEAEMAQNAVRLHYGLPVVVKLLHPPSHWPLIKATVGLIRNLALCPANHAPLREQGAIPRLVQLLVRAHQDTQRRTSMGGTQQQFVEGVRMEEIVEGCTGALHILARDVHNRIVIRGLNTIPLFVQLLYSPIENIQRVAAGVLCELAQDKEAAEAIEAEGATAPLTELLHSRNEGVATYAAAVLFRMSEDKPQDYKKRLSVELTSSLFRTEPMAWNETADLGLDIGAQGEPLGYRQDDPSYRSFHSGGYGQDALGMDPMMEHEMGGHHPGADYPVDGLPDLGHAQDLMDGLPPGDSNQLAWFDTDL
For B1, the binding entry is recorded as “binds”.
